By UniProt entry, the sequences of proteins in these tests, tags left out. Residues count along the entry.
UniProt O75581, residues 20-1613: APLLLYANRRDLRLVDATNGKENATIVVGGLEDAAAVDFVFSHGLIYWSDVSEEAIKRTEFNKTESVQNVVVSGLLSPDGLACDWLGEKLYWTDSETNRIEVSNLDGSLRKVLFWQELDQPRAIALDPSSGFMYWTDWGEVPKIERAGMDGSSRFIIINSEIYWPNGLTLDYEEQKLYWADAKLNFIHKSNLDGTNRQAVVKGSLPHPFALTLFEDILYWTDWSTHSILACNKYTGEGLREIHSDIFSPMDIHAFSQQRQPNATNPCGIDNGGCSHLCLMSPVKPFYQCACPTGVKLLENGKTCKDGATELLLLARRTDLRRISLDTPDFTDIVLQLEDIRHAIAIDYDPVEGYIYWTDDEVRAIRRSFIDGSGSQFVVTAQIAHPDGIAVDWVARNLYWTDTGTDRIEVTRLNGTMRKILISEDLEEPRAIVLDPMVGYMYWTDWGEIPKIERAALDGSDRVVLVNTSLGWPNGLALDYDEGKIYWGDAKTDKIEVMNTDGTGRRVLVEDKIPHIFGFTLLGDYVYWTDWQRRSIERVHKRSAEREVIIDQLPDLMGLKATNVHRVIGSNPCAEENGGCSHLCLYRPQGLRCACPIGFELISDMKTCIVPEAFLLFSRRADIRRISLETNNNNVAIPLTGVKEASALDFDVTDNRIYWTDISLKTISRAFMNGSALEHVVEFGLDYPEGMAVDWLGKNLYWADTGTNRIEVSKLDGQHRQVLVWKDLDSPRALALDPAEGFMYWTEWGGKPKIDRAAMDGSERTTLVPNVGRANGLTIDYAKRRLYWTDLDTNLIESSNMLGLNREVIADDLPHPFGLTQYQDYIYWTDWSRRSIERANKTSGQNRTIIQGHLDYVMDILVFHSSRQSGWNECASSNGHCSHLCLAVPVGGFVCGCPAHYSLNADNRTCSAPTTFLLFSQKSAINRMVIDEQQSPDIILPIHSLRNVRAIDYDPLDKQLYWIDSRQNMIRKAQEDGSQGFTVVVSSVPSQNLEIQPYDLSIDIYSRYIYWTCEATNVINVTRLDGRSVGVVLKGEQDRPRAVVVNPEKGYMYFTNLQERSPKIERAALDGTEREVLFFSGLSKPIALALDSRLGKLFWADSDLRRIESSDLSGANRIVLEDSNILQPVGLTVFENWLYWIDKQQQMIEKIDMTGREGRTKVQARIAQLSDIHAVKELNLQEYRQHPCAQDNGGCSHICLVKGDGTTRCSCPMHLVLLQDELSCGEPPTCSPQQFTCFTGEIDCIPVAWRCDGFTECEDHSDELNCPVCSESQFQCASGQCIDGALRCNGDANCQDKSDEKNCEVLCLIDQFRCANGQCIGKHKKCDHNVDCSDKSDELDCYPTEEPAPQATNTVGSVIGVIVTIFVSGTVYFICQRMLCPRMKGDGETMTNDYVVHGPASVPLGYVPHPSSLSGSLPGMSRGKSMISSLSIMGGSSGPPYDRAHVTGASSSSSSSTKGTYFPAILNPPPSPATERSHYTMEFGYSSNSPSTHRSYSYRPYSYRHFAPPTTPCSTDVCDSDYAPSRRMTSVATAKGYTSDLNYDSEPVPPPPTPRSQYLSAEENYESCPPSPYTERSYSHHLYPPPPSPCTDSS

In publication PMC7828832:

Target: Lrp6-mCherry (UniProt O75581)
Experiment: fluorescence cross-correlation spectroscopy (FCCS); live U2OS cells co-transfected with the two fluorescently tagged proteins, measured at the plasma membrane 24 h after transfection; without and with Wnt3a conditioned medium added 20 min before measurement; cross-correlation percentages normalised to the positive control EGFP-mCherry

binding: binds
Substance: Fz8a-EGFP (from UniProt Q9YI00) (receptor)

Results are given in words; binding and its absence hold for the method and conditions named. Binding calls can cover weak binding; strength is not graded here.
